Numbering of substitutions follows the chain as printed. Where two headings read alike, the source gives them in different places. No constants are given. Whether binding was seen depends on the method and setting. In cells and extracts the contact can be indirect. A yes stands for co-enrichment or nearness to the bait. Other partners may have been found. Tags and fused reporters may be left off the sequences shown.
T1: Hexa-His-tagged FkpB (wild type) (E. coli) (UniProt P0AEM0)
T1 sequence: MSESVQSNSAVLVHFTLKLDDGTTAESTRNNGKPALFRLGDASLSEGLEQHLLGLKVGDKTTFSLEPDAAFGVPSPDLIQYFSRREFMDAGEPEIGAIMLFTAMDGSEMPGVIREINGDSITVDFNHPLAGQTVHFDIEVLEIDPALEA

Chains of the proteins cited; added tags and fusions are not shown.
UniProt P0AG30: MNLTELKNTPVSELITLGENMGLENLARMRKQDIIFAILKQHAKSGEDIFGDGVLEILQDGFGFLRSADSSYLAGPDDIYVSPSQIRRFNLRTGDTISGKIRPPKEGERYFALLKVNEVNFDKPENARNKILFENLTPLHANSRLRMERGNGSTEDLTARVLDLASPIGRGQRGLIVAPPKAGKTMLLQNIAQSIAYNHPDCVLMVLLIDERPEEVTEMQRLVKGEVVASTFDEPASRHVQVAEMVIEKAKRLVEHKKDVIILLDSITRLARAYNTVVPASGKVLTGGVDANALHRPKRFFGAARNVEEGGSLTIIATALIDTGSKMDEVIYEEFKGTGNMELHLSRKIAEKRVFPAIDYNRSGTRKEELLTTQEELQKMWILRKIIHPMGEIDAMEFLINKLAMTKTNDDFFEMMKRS
UniProt P0A7Z4: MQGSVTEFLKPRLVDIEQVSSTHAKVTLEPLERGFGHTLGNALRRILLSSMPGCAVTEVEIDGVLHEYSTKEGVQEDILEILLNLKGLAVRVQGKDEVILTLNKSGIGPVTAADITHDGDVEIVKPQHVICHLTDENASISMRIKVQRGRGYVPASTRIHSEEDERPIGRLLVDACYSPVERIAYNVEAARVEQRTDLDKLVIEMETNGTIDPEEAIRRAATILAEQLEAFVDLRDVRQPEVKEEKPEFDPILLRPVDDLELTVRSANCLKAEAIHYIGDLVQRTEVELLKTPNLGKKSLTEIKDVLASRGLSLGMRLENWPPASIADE
UniProt P0A9B2: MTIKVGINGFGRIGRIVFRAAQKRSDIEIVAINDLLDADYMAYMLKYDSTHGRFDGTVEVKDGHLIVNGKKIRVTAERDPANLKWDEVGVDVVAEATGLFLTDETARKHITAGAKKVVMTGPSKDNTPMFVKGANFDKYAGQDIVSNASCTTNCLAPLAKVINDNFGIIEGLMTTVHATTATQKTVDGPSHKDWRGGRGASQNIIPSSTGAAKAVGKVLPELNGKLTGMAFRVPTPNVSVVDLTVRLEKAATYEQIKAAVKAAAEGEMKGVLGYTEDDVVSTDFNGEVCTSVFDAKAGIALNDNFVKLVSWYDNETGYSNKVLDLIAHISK
UniProt P0ACI0: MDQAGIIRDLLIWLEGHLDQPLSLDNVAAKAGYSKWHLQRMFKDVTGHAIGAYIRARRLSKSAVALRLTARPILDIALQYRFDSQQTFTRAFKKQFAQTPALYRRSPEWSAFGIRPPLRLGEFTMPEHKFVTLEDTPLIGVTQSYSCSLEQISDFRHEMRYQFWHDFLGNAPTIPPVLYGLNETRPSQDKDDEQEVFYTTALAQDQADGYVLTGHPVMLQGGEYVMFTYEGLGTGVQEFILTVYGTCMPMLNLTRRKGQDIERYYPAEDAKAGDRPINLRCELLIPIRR
UniProt P0AAI5: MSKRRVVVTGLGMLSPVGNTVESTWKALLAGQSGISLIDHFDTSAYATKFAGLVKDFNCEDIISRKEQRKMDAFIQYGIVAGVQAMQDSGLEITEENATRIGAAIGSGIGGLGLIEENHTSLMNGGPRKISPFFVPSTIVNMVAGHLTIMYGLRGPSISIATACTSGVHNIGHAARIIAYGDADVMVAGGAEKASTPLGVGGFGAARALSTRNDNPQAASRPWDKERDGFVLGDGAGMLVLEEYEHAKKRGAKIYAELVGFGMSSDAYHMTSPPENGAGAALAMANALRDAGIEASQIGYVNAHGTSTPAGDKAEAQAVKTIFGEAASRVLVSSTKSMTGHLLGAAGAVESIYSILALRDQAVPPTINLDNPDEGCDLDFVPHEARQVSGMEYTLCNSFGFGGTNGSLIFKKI
UniProt P0AFG0: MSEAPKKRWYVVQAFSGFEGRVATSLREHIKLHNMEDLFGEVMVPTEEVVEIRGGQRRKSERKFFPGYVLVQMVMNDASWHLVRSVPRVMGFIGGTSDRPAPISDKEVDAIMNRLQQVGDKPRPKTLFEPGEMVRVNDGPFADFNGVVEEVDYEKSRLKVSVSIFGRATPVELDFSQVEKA
UniProt P42641: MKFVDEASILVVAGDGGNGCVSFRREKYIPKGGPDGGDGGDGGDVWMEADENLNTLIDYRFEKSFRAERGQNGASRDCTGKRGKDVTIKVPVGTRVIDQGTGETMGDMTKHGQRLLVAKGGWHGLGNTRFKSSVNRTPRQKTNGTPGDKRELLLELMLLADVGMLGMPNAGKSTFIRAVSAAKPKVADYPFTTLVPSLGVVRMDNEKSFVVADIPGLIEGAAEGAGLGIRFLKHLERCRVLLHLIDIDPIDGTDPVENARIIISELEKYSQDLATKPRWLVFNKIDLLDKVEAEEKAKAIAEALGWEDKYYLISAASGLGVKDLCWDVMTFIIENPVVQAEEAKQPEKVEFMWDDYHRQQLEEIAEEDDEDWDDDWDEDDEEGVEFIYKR
UniProt P0ADG4: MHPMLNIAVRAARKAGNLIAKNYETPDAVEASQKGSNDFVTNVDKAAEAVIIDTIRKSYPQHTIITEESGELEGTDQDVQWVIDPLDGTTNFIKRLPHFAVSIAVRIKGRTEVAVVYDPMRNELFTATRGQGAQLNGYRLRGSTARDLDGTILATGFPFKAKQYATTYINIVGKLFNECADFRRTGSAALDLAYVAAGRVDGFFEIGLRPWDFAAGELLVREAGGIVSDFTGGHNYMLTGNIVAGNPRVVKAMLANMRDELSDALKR
UniProt P0AE08: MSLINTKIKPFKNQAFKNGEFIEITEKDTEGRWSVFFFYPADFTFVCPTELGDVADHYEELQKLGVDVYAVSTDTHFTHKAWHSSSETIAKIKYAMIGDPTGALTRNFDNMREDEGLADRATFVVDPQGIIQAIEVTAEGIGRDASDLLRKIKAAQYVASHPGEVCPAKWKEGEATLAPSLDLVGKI
UniProt P0A9X4: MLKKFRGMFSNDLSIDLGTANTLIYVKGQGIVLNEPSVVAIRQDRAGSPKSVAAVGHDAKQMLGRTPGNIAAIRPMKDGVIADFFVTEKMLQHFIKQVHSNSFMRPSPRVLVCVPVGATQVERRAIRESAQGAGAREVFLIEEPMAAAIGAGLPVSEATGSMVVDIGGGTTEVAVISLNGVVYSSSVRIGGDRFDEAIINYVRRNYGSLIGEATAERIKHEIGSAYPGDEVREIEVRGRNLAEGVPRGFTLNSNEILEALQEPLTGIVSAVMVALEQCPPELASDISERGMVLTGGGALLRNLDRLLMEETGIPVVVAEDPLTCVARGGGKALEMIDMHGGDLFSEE

T2: Hexa-His-tagged PpiC (wild type) (E. coli, UniProt P0A9L5 1-93)
T2 construct: PpiC, parvulin peptidyl-prolyl cis/trans isomerase, E. coli; coding region of the ppiC gene in pET24b; The tag is called cleavable; also called wt PpiC; wild-type PpiC; source: E. coli T7 express derivative lacking all six PPIs (SR21984), IPTG-induced; in lysate on Ni-NTA for co-elution; purified (Ni-NTA) for ITC; not shown: His6, C-terminal, kept
T2 sequence (looked up): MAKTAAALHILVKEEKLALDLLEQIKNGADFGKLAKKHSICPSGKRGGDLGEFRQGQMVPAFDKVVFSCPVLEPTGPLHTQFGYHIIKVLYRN

T3: Hexa-His-tagged FkpB E86A (E. coli) (UniProt P0AEM0)
T3 sequence: T1 sequence with E86A

T4: His6-tagged PpiB (wild type) (E. coli) (UniProt P23869)
T4 sequence: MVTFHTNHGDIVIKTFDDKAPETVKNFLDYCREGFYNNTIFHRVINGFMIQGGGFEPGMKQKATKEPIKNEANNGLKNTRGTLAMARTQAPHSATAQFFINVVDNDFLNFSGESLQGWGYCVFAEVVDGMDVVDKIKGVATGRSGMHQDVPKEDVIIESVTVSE

T5: Hexa-His-tagged FklB (wild type) (E. coli) (UniProt P0A9L3)
T5 sequence: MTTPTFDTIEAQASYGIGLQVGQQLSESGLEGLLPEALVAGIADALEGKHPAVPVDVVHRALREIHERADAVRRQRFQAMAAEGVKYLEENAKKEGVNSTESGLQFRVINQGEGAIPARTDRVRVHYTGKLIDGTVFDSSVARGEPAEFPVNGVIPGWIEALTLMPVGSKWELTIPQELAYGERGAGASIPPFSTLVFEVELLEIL

B1: OxyR (protein, UniProt P0ACQ4 1-305)
chain: MNIRDLEYLVALAEHRHFRRAADSCHVSQPTLSGQIRKLEDELGVMLLERTSRKVLFTQAGMLLVDQARTVLREVKVLKEMASQQGETMSGPLHIGLIPTVGPYLLPHIIPMLHQTFPKLEMYLHEAQTHQLLAQLDSGKLDCVILALVKESEAFIEVPLFDEPMLLAIYEDHPWANRECVPMADLAGEKLLMLEDGHCLRDQAMGFCFEAGADEDTHFRATSLETLRNMVAAGSGITLLPALAVPPERKRDGVVYLPCIKPEPRRTIGLVYRPGSPLRSRYEQLAEAIRARMDGHFDKVLKQAV
B2: EttA protein (Energy-dependent Translational Throttle A) (protein, UniProt P0A9W3 1-555)
chain: MAQFVYTMHRVGKVVPPKRHILKNISLSFFPGAKIGVLGLNGAGKSTLLRIMAGIDKDIEGEARPQPDIKIGYLPQEPQLNPEHTVRESIEEAVSEVVNALKRLDEVYALYADPDADFDKLAAEQGRLEEIIQAHDGHNLNVQLERAADALRLPDWDAKIANLSGGERRRVALCRLLLEKPDMLLLDEPTNHLDAESVAWLERFLHDFEGTVVAITHDRYFLDNVAGWILELDRGEGIPWEGNYSSWLEQKDQRLAQEASQEAARRKSIEKELEWVRQGTKGRQSKGKARLARFEELNSTEYQKRNETNELFIPPGPRLGDKVLEVSNLRKSYGDRLLIDDLSFSIPKGAIVGIIGPNGAGKSTLFRMISGQEQPDSGTITLGETVKLASVDQFRDSMDNSKTVWEEVSGGLDIMKIGNTEMPSRAYVGRFNFKGVDQGKRVGELSGGERGRLHLAKLLQVGGNMLLLDEPTNDLDIETLRALENALLEFPGCAMVISHDRWFLDRIATHILDYQDEGKVEFFEGNFTEYEEYKKRTLGADALEPKRIKYKRIAK

Tests used:
Test in all cases: affinity purification with mass spectrometry; His6-tagged PPI induced with 0.1 mM IPTG in an E. coli T7 express derivative lacking all six PPIs (SR21984); soluble lysate on Ni-NTA beads, 50 mM NaH2PO4, 300 mM NaCl, eluted with a linear imidazole gradient (50-500 mM); co-eluting proteins resolved by SDS-PAGE (for FkpB also 2D gels) and identified by MALDI-TOF
[1] = target: T1, Hexa-His-tagged FkpB (wild type) (E. coli)
[2] = target: T2, Hexa-His-tagged PpiC (wild type)
[3] = target: T3, Hexa-His-tagged FkpB E86A (E. coli)
[4] = target: T4, His6-tagged PpiB (wild type) (E. coli)
[5] = target: T5, Hexa-His-tagged FklB (wild type) (E. coli)
[6] = target: T2, Hexa-His-tagged PpiC (wild type); remark: listed apart in the source
[7] = target: T5, Hexa-His-tagged FklB (wild type) (E. coli); remark: listed apart in the source

Row | binding [1] | binding [2] | binding [3] | binding [5] | other results | Molecule
1 | binds | binds | binds | binds | binding [4]: binds | Rho transcriptional terminator factor (from UniProt P0AG30 1-419)
2 | – | binds | – | binds | – | RpoA (from UniProt P0A7Z4 1-329)
3 | binds | – | binds | – | – | GapA protein (from UniProt P0A9B2 1-331)
4 | – | – | – | binds | – | transcriptional regulator Rob (from UniProt P0ACI0 1-289)
5 | binds | – | binds | – | – | FabF (from UniProt P0AAI5 1-413)
6 | – | binds | – | binds | – | NusG (from UniProt P0AFG0 1-181)
7 | – | – | – | binds | – | ribosome assembly-related GTP-binding protein ObgE (from UniProt P42641 1-390)
8 | – | binds | – | – | – | SuhB (from UniProt P0ADG4 1-267)
9 | binds | binds | binds | binds | – | alkyl hydroperoxide reductase subunit C (AhpC) (from UniProt P0AE08 1-187)
10 | binds | – | binds | – | binding [4]: binds | cell shape determining protein MreB (from UniProt P0A9X4 1-347)
11 | – | – | – | – | binding [6]: binds; binding [7]: binds | B1
12 | – | – | – | – | binding [6]: binds; binding [7]: binds | B2

— PMC7353009, “Identification of Substrates of Cytoplasmic Peptidyl-Prolyl Cis/Trans Isomerases and Their Collective Essentiality in Escherichia Coli” (International Journal of Molecular Sciences, 2020)
